Assay results published in PubChem BioAssay AID2549 (National Center for Advancing Translational Sciences (NCATS), 2010).
Several values for one entry are separate records, joined by “and”; a condition that tells them apart may be missing. Identical values can stand only once. About 1,300 (0.54%) of roughly 240,000 compounds were called active. The shares of active, inactive and inconclusive entries below differ from those in the screen. Calls follow the shape of the dose curve; as a rule, active = well fitted inhibition curve with a large enough effect; inconclusive = small, poorly fitted or top-dose-only effect; inactive = flat fitted curve, though single readings scatter. A potency beside an inconclusive call is a rough fit, not a confirmed value.

By UniProt entry, the sequences of proteins in these tests, tags left out. Where a name states a change or a piece, a line headed by the entry shows the natural chain unless it says otherwise.
UniProt P46063: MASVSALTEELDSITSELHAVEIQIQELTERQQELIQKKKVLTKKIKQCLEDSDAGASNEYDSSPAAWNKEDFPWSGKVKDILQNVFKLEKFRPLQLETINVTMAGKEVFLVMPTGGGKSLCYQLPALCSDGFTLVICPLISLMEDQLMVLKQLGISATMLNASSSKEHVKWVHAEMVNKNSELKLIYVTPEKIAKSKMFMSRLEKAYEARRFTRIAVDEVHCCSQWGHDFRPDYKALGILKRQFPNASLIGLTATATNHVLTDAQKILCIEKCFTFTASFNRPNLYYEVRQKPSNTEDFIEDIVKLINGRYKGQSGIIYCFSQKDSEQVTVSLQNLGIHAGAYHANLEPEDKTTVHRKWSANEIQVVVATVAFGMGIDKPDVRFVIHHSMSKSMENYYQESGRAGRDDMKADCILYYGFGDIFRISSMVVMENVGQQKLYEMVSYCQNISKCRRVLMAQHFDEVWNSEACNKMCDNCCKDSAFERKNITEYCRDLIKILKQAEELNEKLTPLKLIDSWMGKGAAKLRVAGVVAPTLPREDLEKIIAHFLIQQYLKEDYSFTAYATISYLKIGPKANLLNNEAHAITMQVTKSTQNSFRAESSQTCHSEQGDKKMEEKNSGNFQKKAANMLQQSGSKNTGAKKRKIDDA

biological target: ATP-dependent DNA helicase Q1 (Homo sapiens) (UniProt P46063); test: qHTS Assay for Inhibitors of RecQ-Like Dna Helicase 1 (RECQ1); settings: RECQ1 DNA unwinding, red fluorescence kinetic read; activity, negative = inhibition: at 57.3 µM (top of the series); series mostly up to 57.3 µM; also: nearly all actives have a fitted effect of over 30% in size;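 as to activity, negative = inhibition: plate controls were vehicle for no effect and no enzyme for full effect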
In short: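 50 nM RECQ1T1 preincubated 15 min with compound in Tris pH 8.0 buffer with MgCl2, DTT, Tween-20 and 2.5 ug/ml poly(dI-dC); started with 200 nM TAMRA/BHQ-2 forked duplex and 2 mM ATP. Unwinding read as fluorescence (525/598 nm), two reads 2 h apart.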
Potency is read from the fitted curve at half-maximal effect.

SMILES | Potency | activity, negative = inhibition | outcome
O=C1C2C3C=CC(C3)C2C(=O)N1CNc1ccc(O)cc1 (stereo not drawn) | inconclusive: 35.5 µM [inhibitor, single point] |  | 
C/C(=N\Nc1nc2ccccc2[nH]1)c1ccc(Cl)s1 | active: 31.6 µM |  | 
CC(=O)Nc1ccc(Nc2c3ccccc3nc3ccccc23)cc1 | active: 14.1 µM |  | 
COC(=O)C1=C(C(=O)OC)[C@@H]2Nc3ccccc3[C@@]23C[C@@H](C(=O)OC)N(S(=O)(=O)c2ccc(C#N)cc2)C3=N1 |  | inactive: -2.11% [at 11.5 µM] | 
O=c1c2c(-c3ccco3)csc2nc(SCc2cn3cccnc3n2)n1-c1ccccc1 | active: 12.6 µM |  | 
CC(C)Nc1ccc(Nc2ccnc3cc4ccccc4cc23)cc1 | active: 22.4 µM |  | 
COc1cccc(-c2nn(C)c3sc(C(=O)NCc4ccc(C)o4)cc23)c1 | inactive |  | 
FC(F)(F)c1ccccc1Cl | inactive |  | 
O=C(CSc1nc2ccccc2[nH]1)N1c2ccccc2Sc2ccccc21 | inconclusive: 39.8 µM [inhibitor, single point] |  | 
Cc1ccc2nc(-c3ccc(N)cc3)sc2c1S(=O)(=O)O | inconclusive: 35.5 µM [inhibitor, single point] |  | 
O=c1c(-c2ccc([N+](=O)[O-])cc2)coc2c(O)c(O)ccc12 | active: 8.91 µM |  | 
Cc1nnc(C)c2c(C)n(Cc3ccc4c(c3)OCO4)c(C)c12 | inactive |  | 
O=C(CNC(=O)c1ccccc1)NCC(=O)OCc1ccc(Cl)cc1 | inconclusive: 1.26 µM [inhibitor, full curve] |  | 
O=C(/C=C1\C(=O)Nc2ccccc21)/C=C1\C(=O)Nc2ccccc21 | inactive |  | 
COc1cccc(=O)c2c(C)n(-c3ccc(C(=O)O)cc3)c(C)c12 | inconclusive: 35.5 µM [inhibitor, single point] |  | 
CN(C(=O)COC(=O)c1cc(-c2ccco2)nc2ccccc12)C1CCS(=O)(=O)C1 (stereo not drawn) | active: 14.1 µM |  | 
O=C(CSc1nnc(COc2ccccc2Cl)o1)NC(=O)NCc1ccco1 | inactive |  | 
Cc1onc(-c2c(F)cccc2Cl)c1C(=O)NCc1ccco1 | inactive |  | 
COCCOC(=O)c1sc(=S)n(CCOC)c1N | inconclusive: 35.5 µM [inhibitor, single point] |  | 
O=C(COc1ccccc1C(=O)N/N=C\c1ccc(O)c(O)c1)N/N=C/c1ccc(O)c(O)c1 | active: 1 µM |  | 
O=C(O)c1ccc(-c2ccc(/C=N/Nc3ccc([N+](=O)[O-])cc3)o2)cc1 | inconclusive: 35.5 µM [inhibitor, single point] |  | 
CC(/C=C/C=C(C)/C=C/C(=O)O)=C\C=C\C=C(C)\C=C\C=C(C)\C=C\C(=O)O | active: 11.2 µM |  | 
O=C1CCC=C1C(O)c1ccccc1 (stereo not drawn) | inactive |  | 
Cc1ccc(CC(=O)Nc2ccc(F)c([N+](=O)[O-])c2)cc1 | inconclusive: 39.8 µM [inhibitor, single point] |  | 
Cc1ccc(N2C(=O)N(CC(=O)NCc3ccccc3Cl)C(=O)C2C)cc1 (stereo not drawn) | inactive |  | 

SMILES | Potency | activity, negative = inhibition | outcome
CC(=O)c1cc(-c2ccccc2)n(CCC(=O)NCc2cccs2)c1C | inconclusive: 0.708 µM [inhibitor, single point] |  | 
CCCC[C@@H]1C[C@H]1C(NC(=O)c1ccccc1)c1ccc(C(=O)OC)cc1 (stereo partly drawn) | inactive |  | 
CCN(CC)c1ccc(NC(=O)CSc2nc3ccccc3c(=O)[nH]2)cc1 | inconclusive: 0.112 µM [inhibitor, full curve, poor fit] |  | 
Cc1cccc(C)c1NC(=S)NC(C)CCc1ccccc1 (stereo not drawn) | inconclusive: 0.447 µM [inhibitor, partial curve, poor fit] |  | 
COc1ccc(-n2[nH]c(C)cc2=O)cc1 | inconclusive: 28.2 µM [inhibitor, single point] |  | 
O=C1C(Cc2ccccc2)C(c2ccccc2)N1c1ccccc1 (stereo not drawn) | inconclusive: 6.31 µM [inhibitor, single point] |  | 
CCOC(=O)c1c(N2C(=O)Nc3cc(Cl)c(Cl)cc3N2O)sc2c1CCCCC2 | inconclusive: 39.8 µM [inhibitor, single point] |  | 
CCCc1nc(N)c(C#N)c(N)c1C#N | inconclusive: 25.1 µM [inhibitor, single point] |  | 
O=C(C1CC1)N1CCN=C1SCc1ccc(F)cc1 | inactive |  | 
CCOC(=O)c1cnc(SC2CC(=O)N(c3ccccc3)C2=O)nc1N (stereo not drawn) | inconclusive: 6.31 µM [inhibitor, single point] |  | 
CCC(c1nnnn1CCc1ccccc1)N1CCN(C(=O)c2ccco2)CC1 (stereo not drawn) | inactive |  | 
CC1CCCC(C)N1C(=O)C1CCCCC1 (stereo not drawn) | inconclusive: 0.0224 µM [inhibitor, full curve, poor fit] |  | 
O=C(CCSCCC(=O)NCc1ccco1)NCc1ccco1 | inactive |  | 
N#CC1=C(N)Oc2ccc3ccc(O)cc3c2C1c1ccsc1 (stereo not drawn) | inconclusive: 35.5 µM [inhibitor, single point] |  | 
O=c1c(-c2cccs2)nc2cnc(N3CCNCC3)nc2n1C1CC1 | inactive |  | 
O=C(Cn1ncc(Cl)c(Cl)c1=O)NCC1CCCCC1 | inconclusive: 0.1 µM [inhibitor, full curve] |  | 
COC(=O)C1=C(C)N(Cc2ccccc2)C2=C3C(=O)CCCC3[C@@](O)(C(=O)OC)C(=O)N2C1c1ccccc1 (stereo partly drawn) |  |  | inactive [at 11.5 µM]
COCc1nnc(NC(=O)c2ccc(S(=O)(=O)N(C)c3ccccc3)cc2)o1 | inconclusive: 1.26 µM [inhibitor, full curve, poor fit] |  | 
Cc1cc(C)cc(N2CC(C(=O)O)CC2=O)c1 (stereo not drawn) | inconclusive: 0.158 µM [inhibitor, full curve] |  | 
CC(=O)Oc1ccc(C(=O)Nc2cccc(C(=O)c3cccc(NC(=O)c4ccc(OC(C)=O)cc4)c3)c2)cc1 | active: 14.1 µM |  | 
Cc1ccc(CSCC(=O)N/N=C/c2ccc(OCC(=O)Nc3ccc(C)cc3)cc2)cc1 | inactive |  | 
COc1ccc(N2C(=O)c3ccccc3NC2(C)C)cc1 | inconclusive: 0.141 µM [inhibitor, full curve, poor fit] |  | 
NC[C@H](O)c1ccc(O)c(O)c1 | active: 3.55 µM and active: 2.24 µM and active: 1.41 µM |  | 
Cc1cccc(N2CCC(N3CCN(C4CCCCC4)C(CCO)C3)CC2)c1C (stereo not drawn) | inconclusive: 31.6 µM [inhibitor, single point] |  | 
COC(=O)C(Cc1c[nH]c2ccccc12)NC(=O)c1cc(-c2ccc(OC)c(OC)c2)oc1C (stereo not drawn) | inactive |  | 

SMILES | Potency | activity, negative = inhibition | outcome
CCCCC1=CC2=C(c3ccco3)C(=O)C(C)(OC(=O)c3ccc(OC)cc3)C(=O)C2=CN1c1ccc(OC)cc1 (stereo not drawn) | inconclusive: 0.158 µM [inhibitor, full curve, poor fit] |  | 
C/C=C/C=C/C(=O)N1CC2(CC(c3cccc(NC(=O)CCCCC)c3)=NO2)C[C@H]1C(N)=O (stereo partly drawn) | inconclusive: 6.31 µM [inhibitor, single point] |  | 
NC(=O)c1ccsc1NC(=O)CSc1nc2ccccc2c(=O)n1CCCO | inconclusive: 1.12 µM [inhibitor, full curve] |  | 
O=C(NC(Nc1nc2ccccc2s1)(C(F)(F)F)C(F)(F)F)c1ccccc1 | inactive |  | 
O=c1c2cc(N3CCOCC3)ccc2[nH]c(=S)n1CCCN1CCCCCC1 | inconclusive: 25.1 µM [inhibitor, single point] |  | 
O=[N+]([O-])c1ccc(-c2ccc(/C=N/Nc3nc(N4CCCC4)nc(N4CCCC4)n3)o2)cc1 | inconclusive: 39.8 µM [inhibitor, single point] |  | 
COc1nc(-c2cnccn2)sc1C | inconclusive: 0.794 µM [inhibitor, single point] |  | 
CNc1ccc(/C=C/C(=O)c2ccc(C)cc2)cc1[N+](=O)[O-] | inconclusive: 35.5 µM [inhibitor, single point] |  | 
CC1(C)c2ccccc2N2CC(=O)N(CC(N)=O)C21C (stereo not drawn) | active: 31.6 µM |  | 
Cc1sc2c(c1C)C(=O)NC(c1ccccc1F)N2 (stereo not drawn) | inconclusive: 15.8 µM [inhibitor, partial curve] |  | 
Cc1cccc(NC(=S)NC2CC3CCCC(C2)N3Cc2cccs2)c1 (stereo not drawn) | inconclusive: 39.8 µM [inhibitor, partial curve] |  | 
NNC(=O)c1oc2nc(-c3ccco3)cc(-c3ccco3)c2c1N | inconclusive: 39.8 µM [inhibitor, single point] |  | 
COc1cc(/C=N/NC(=S)NC2CC3C=CC2C3)cc(OC)c1OC (stereo not drawn) | inactive |  | 
CSC1=NSC2=NC(=O)/C(=C/c3coc4ccc(O)cc4c3=O)C(=N)N12 | inactive |  | 
CCc1ccc2nc(/N=C(\N)NC(=O)c3ccccc3)nc(C)c2c1 | inconclusive: 0.158 µM [inhibitor, full curve, poor fit] |  | 
NC(=O)c1ccc(-n2nnnc2SCC(=O)c2ccc(O)c(O)c2)cc1 | active: 8.91 µM |  | 
Cc1ccc(NC(=S)c2nc3ccccc3[nH]2)c(C)c1 | active: 4.47 µM |  | 
Cc1cc(SCC(=O)Nc2cccnc2Cl)nc2ccccc12 | inconclusive: 15.8 µM [inhibitor, partial curve] |  | 
COc1cc(OC)c2ccc(=O)oc2c1C(CC(=O)N1CCCC1)c1ccc2c(c1)OCO2 (stereo not drawn) | inconclusive: 25.1 µM [inhibitor, partial curve] |  | 
CN1/C(=C\C(=S)NC(=O)c2ccccc2Cl)C(C)(C)c2ccccc21 | active: 25.1 µM |  | 
CC(C)(O)C#CC#CCN1CCOCC1 | inconclusive: 17.8 µM [inhibitor, partial curve, poor fit] |  | 
O=C1c2ccccc2C(=O)N1/N=C/c1ccc(O)c(O)c1O | active: 6.31 µM |  | 
CC(C)C[C@H](NC(=O)c1nc[nH]c1C(=O)NCCCCCNC(=O)OC(C)(C)C)C(=O)OCc1ccccc1 | inconclusive: 39.8 µM [inhibitor, single point] |  | 
